Test results published in the supplement of paper PMC6078165.
Values are relative to the signal before dosing, not to a vehicle control; the signal also falls without drug.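 Fibroblast labels name human fibroblasts: mostly primary ones from tissues such as uterus (C12385, HUF), lung (H6013), bone (Hs27A), adrenal (HADF) and skin (WS1), plus mammary HMF and breast cancer-associated Hs343T. The cancer cells are basal-like or mesenchymal-like triple-negative breast cancer lines. The paper calls a changed response a hit when it shifts by more than 3x the replicate standard deviation. The tissue of the other fibroblasts is not given here.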

System: MDAMB436
Assay: relative JC-1 red fluorescence (viability) vs pre-drug, coculture with fibroblast (fraction); higher = more viable cancer cells
Method: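 JC-1 labelled TNBC cells cocultured 1:1 (1,500 cells each) with CellTrace Violet stained primary or stromal fibroblasts in 384-well plates in FluoroBrite medium, treated with one of 42 anticancer drugs at 0.1, 1, 10 or 100 uM. JC-1 red fluorescence (mitochondrial integrity in cancer cells only) was read by plate reader every 8 h for 72 h. Values are normalised to each well's pre-drug value. The stock of one drug was tenfold lower, so its dose labels may be too high.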

CCN(CC)CCNC(=O)c1c(C)[nH]c(/C=C2\C(=O)Nc3ccc(F)cc32)c1C [Sunitinib]
relative JC-1 red fluorescence
Settings | 8 h | 16 h | 24 h | 32 h | 40 h | 48 h | 56 h | 64 h | 72 h
10 µM, coculture fibroblast: C12385 | 0.797 | 0.747 | 0.707 | 0.641 | 0.58379 | 0.545 | 0.5064 | 0.467 | 0.45
10 µM, coculture fibroblast: H6013 | 0.803 | 0.774 | 0.759 | 0.738 | 0.718 | 0.708 | 0.694 | 0.662 | 0.617
10 µM, coculture fibroblast: H6019 | 0.813 | 0.796 | 0.79 | 0.747 | 0.73 | 0.729 | 0.708 | 0.6811 | 0.6549
10 µM, coculture fibroblast: H6076 | 0.761 | 0.653 | 0.604 | 0.555 | 0.513 | 0.471 | 0.453 | 0.431 | 0.415
10 µM, coculture fibroblast: H6231 | 0.772 | 0.653 | 0.583 | 0.478 | 0.422 | 0.355 | 0.322 | 0.282 | 0.256
10 µM, coculture fibroblast: HADF | 0.754 | 0.724 | 0.668 | 0.625 | 0.5881 | 0.573 | 0.527 | 0.507 | 0.449
10 µM, coculture fibroblast: HCFa | 0.885 | 0.84 | 0.798 | 0.78 | 0.773 | 0.768 | 0.728 | 0.718 | 0.666
10 µM, coculture fibroblast: HCPF | 0.776 | 0.731 | 0.681 | 0.599 | 0.55 | 0.502 | 0.45 | 0.419 | 0.393
10 µM, coculture fibroblast: HHSteC | 0.865 | 0.806 | 0.772 | 0.725 | 0.692 | 0.66 | 0.606 | 0.565 | 0.516
10 µM, coculture fibroblast: HMF | 0.739 | 0.645 | 0.572 | 0.522 | 0.468 | 0.414 | 0.378 | 0.342 | 0.324
10 µM, coculture fibroblast: HPFa | 0.756 | 0.813 | 0.754 | 0.73 | 0.79 | 0.787 | 0.776 | 0.69 | 0.674
10 µM, coculture fibroblast: HUF | 0.8518 | 0.803 | 0.767 | 0.71 | 0.66 | 0.615 | 0.581 | 0.555 | 0.535
10 µM, coculture fibroblast: Hs5 | 0.724 | 0.666 | 0.629 | 0.552 | 0.527 | 0.463 | 0.4567 | 0.419 | 0.398
10 µM, coculture fibroblast: Hs27A | 0.78 | 0.867 | 0.813 | 0.807 | 0.787 | 0.837 | 0.851 | 0.834 | 0.772
10 µM, coculture fibroblast: Hs343T | 0.693 | 0.626 | 0.573 | 0.517 | 0.475 | 0.424 | 0.394 | 0.376 | 0.349
10 µM, coculture fibroblast: WS1 | 0.784 | 0.763 | 0.756 | 0.6637 | 0.60752 | 0.569 | 0.548 | 0.511 | 0.486
100 µM, coculture fibroblast: C12385 | 0.577 | 0.387 | 0.375 | 0.312 | 0.281 | 0.284 | 0.259 | 0.238 | 0.224
100 µM, coculture fibroblast: H6013 | 0.508 | 0.463 | 0.45 | 0.442 | 0.436 | 0.468 | 0.422 | 0.39 | 0.339
100 µM, coculture fibroblast: H6019 | 0.499 | 0.427 | 0.431 | 0.384 | 0.365 | 0.365 | 0.345 | 0.325 | 0.302
100 µM, coculture fibroblast: H6076 | 0.407 | 0.345 | 0.368 | 0.31 | 0.263 | 0.242 | 0.23 | 0.227 | 0.227
100 µM, coculture fibroblast: H6231 | 0.579 | 0.383 | 0.32 | 0.26 | 0.19265 | 0.169 | 0.163 | 0.16 | 0.165
100 µM, coculture fibroblast: HADF | 0.559 | 0.441 | 0.44 | 0.423 | 0.404 | 0.426 | 0.381 | 0.353 | 0.313
100 µM, coculture fibroblast: HCFa | 0.631 | 0.575 | 0.565 | 0.574 | 0.553 | 0.5849 | 0.518 | 0.51 | 0.438
100 µM, coculture fibroblast: HCPF | 0.449 | 0.418 | 0.425 | 0.374 | 0.313 | 0.265 | 0.245 | 0.239 | 0.224
100 µM, coculture fibroblast: HHSteC | 0.539 | 0.481 | 0.465 | 0.453 | 0.432 | 0.46 | 0.4009 | 0.386 | 0.326
100 µM, coculture fibroblast: HMF | 0.482 | 0.44 | 0.465 | 0.45 | 0.412 | 0.371 | 0.357 | 0.344 | 0.32
100 µM, coculture fibroblast: HPFa | 0.611 | 0.4515 | 0.434 | 0.419 | 0.405 | 0.425 | 0.387 | 0.364 | 0.322
100 µM, coculture fibroblast: HUF | 0.575 | 0.396 | 0.377 | 0.325 | 0.287 | 0.27 | 0.246 | 0.219 | 0.204
100 µM, coculture fibroblast: Hs5 | 0.449 | 0.392 | 0.392 | 0.363 | 0.304 | 0.251 | 0.231 | 0.221 | 0.216
100 µM, coculture fibroblast: Hs27A | 0.503 | 0.353 | 0.372 | 0.373 | 0.369 | 0.417 | 0.378 | 0.369 | 0.347
100 µM, coculture fibroblast: Hs343T | 0.388 | 0.334 | 0.336 | 0.306 | 0.271 | 0.248 | 0.246 | 0.242 | 0.256
100 µM, coculture fibroblast: WS1 | 0.519 | 0.386 | 0.381 | 0.326 | 0.305 | 0.314 | 0.285 | 0.263 | 0.256
